Here are results for 42 sequences from paper PMC7819943, “Rice protein-binding microarrays: a tool to detect cis-acting elements near promoter regions in rice”.

By UniProt entry, the sequences of proteins in these tests, tags left out.
UniProt Q0JBA9, entry or part of it: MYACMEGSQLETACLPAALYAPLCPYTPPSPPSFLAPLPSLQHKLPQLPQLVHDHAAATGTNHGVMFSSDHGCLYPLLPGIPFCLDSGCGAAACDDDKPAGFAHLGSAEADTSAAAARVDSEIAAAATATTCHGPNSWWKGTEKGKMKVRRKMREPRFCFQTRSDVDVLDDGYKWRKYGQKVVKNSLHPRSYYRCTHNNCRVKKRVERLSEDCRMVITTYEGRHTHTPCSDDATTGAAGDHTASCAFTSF

Some of the results follow.

The target of the assay is OsWRKY34 (Oryza sativa, UniProt Q0JBA9 1-250). Put plainly: protein-binding microarray (RPBM); PBS, 2% BSA, 51.3 ng/ul salmon testes DNA, 50 uM zinc acetate, 200 nM TF, 25 C, 1 h; high values mean tight binding. The settings on record: protein: recombinant; tags: N-terminal polyhistidine and DsRed monomer fusion (pET32a); label: CyDye5-dUTP incorporated in the synthesized complementary strand; 3' TTTTT single-stranded linker to array surface; dsDNA, one strand shown. The method, boiled down:
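A custom Agilent array was converted to double-stranded form by primer extension with Cy5-dUTP and blocked with 2% BSA. Protein at 200 nM in PBS with 2% BSA, salmon testes DNA and 50 µM zinc acetate was applied for 1 h at 25 °C, followed by washing. The proteins were polyhistidine–DsRed N-terminal fusions of transcription factors, expressed in E. coli BL21-CodonPlus and Ni–NTA-purified. The binding signal is per-feature fluorescence intensity (arbitrary units) from an Axon 4000B scanner.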
With “ATTCAACTTACATGTGAAATTTATTTATTGTAGGCCTCATCGGAGTCACCTAGTGCAG”, the binding signal is 8330 fluorescence intensity (a.u.). With “CTCACATGTTTGACCAATCGTCTTATTCAAAAATTTTATGCGGAGTCACCTAGTGCAG” the figure was 10500 fluorescence intensity (a.u.); with “CCAGAGAACATGCCTCACATACTATACATATTGCATCTGTCGGAGTCACCTAGTGCAG”, 8140 fluorescence intensity (a.u.). For “CTCCTTCCATCTTTGACCTCGTCTCGTCTCGTCTCGTCTCCGGAGTCACCTAGTGCAG” the value was 11200 fluorescence intensity (a.u.); for “GCTTCGGCTTCTCTCAACTACTGTTTGCTTCGCCGCCGTCCGGAGTCACCTAGTGCAG”, 13200 fluorescence intensity (a.u.); for “CTCACTCGTCACTCTCCTATTCTCACCGGCCTCGCAGCTGCGGAGTCACCTAGTGCAG”, 13900 fluorescence intensity (a.u.). With “GATACTCACATTGTTATAGTCAAATATTTTCATCTGCTTACGGAGTCACCTAGTGCAG” the figure was 8160 fluorescence intensity (a.u.). As for “AGAGGAGAGAAAAAATTCTACATGTCACATATTACGTTCACGGAGTCACCTAGTGCAG”, the binding signal was 8810 fluorescence intensity (a.u.). With “TTTGCTTGTTTCATTTTTTTTCAGATAGTCTGAATGTCTGCGGAGTCACCTAGTGCAG” the figure was 8920 fluorescence intensity (a.u.); with “TTGGTTTGGTTCGTGGCCTAAATAGGCCTTACTAAATTTTCGGAGTCACCTAGTGCAG”, 9030 fluorescence intensity (a.u.).

For “AGTCAGAATGTACATACTCCACCGCGTACGCCTAGCATTTCGGAGTCACCTAGTGCAG”, the binding signal is 8720 fluorescence intensity (a.u.).

Regarding “GCATTTCGAAGGAGTTTTGGAGGATTGGCTTAGTATTTCTCGGAGTCACCTAGTGCAG”, the binding signal is 10400 fluorescence intensity (a.u.).

For “ATGAAGCATTCTTCTTCTTCTTCTTCTTCTTGGGTCTTCTCGGAGTCACCTAGTGCAG”, the binding signal was 8940 fluorescence intensity (a.u.). For “AGCTATCTATTACTAGTTCTTCCTTCGATTCCAAGCATATCGGAGTCACCTAGTGCAG” the value was 9030 fluorescence intensity (a.u.). With “CTCCCGTGCACTCCTACTAGCCGTTGCGCCTCTCCTCTGCCGGAGTCACCTAGTGCAG” the figure was 11000 fluorescence intensity (a.u.). For “CACACCCATCTGTTCCCTTCCAGCATCCACAACCTCTTCACGGAGTCACCTAGTGCAG”, the binding signal is 10100 fluorescence intensity (a.u.). For “AAATTTTGCTTGTTTGTACATGGTTATTTAGTTTTTTCAACGGAGTCACCTAGTGCAG” the value was 11600 fluorescence intensity (a.u.); for “TCATCTCATTTCTCTCTTCTTGTCACCTTGTTCTCTGCACCGGAGTCACCTAGTGCAG”, 9730 fluorescence intensity (a.u.); for “ACCTTGCTCCCGTCCGTCCGTACGTCGGAACGCAGCTATGCGGAGTCACCTAGTGCAG”, 8060 fluorescence intensity (a.u.). With “CATCATCTTCTTCTTCTTCTTCTTCTTCTTCTTCTTCTTCCGGAGTCACCTAGTGCAG” the figure was 11800 fluorescence intensity (a.u.); with “ATCCTATTTGTGTCACCATCACCTGTAGATTTTATGATTACGGAGTCACCTAGTGCAG”, 10300 fluorescence intensity (a.u.). With “TCACACTGTTGTTAAAAGGTCCATTATTATGTGTTCCCATCGGAGTCACCTAGTGCAG” the figure was 9850 fluorescence intensity (a.u.); with “TATTCTGCACTATCATTCCTAGATCTTTACATTTCCTTAGCGGAGTCACCTAGTGCAG”, 8400 fluorescence intensity (a.u.); with “TGCTGTCATGCACCCCATTCGTCCGGGTTCAATTCTCCTCCGGAGTCACCTAGTGCAG”, 10400 fluorescence intensity (a.u.). Turning to “GTCACCATCCCGTCTTCTCCGCCAGTCGCCTCACGCCCGGCGGAGTCACCTAGTGCAG”, the binding signal was 8870 fluorescence intensity (a.u.). With “GCCAGCTCGTCCACCATAGTTGCCTTCCATCCCGCCATAGCGGAGTCACCTAGTGCAG” the figure was 12100 fluorescence intensity (a.u.); with “GCATAACCTGTAGCAACCTCACCGGCCATGTCCTCAAGCTCGGAGTCACCTAGTGCAG”, 12000 fluorescence intensity (a.u.); with “GGATACTGTGCCATTGTGCCTTTCTCGGGTCATCAGTCCACGGAGTCACCTAGTGCAG”, 11200 fluorescence intensity (a.u.). For “CAATGGCCACGCCGTCTTGCAACCGCACTACTGCAGTTACCGGAGTCACCTAGTGCAG” the value was 8850 fluorescence intensity (a.u.); for “CTATCTAAATTAATACTCAATTAATCATATTTTAATTACCCGGAGTCACCTAGTGCAG”, 15300 fluorescence intensity (a.u.); for “CACGTCCATCTGCCCAATCCGGGTTCATCGGAAGACGACGCGGAGTCACCTAGTGCAG”, 8850 fluorescence intensity (a.u.).

Take “GTGTGTTGTTGTTCTTGTTTTGGTTCTTTTCTAGTAGTATCGGAGTCACCTAGTGCAG”: the binding signal is 8750 fluorescence intensity (a.u.). For “GCGGGTGAAAAAGGTGGGGAGCTGAACAAAACGACTGGCTCGGAGTCACCTAGTGCAG” the value was 8880 fluorescence intensity (a.u.). On to “GTTTTCTTTCATTAAAAGCTGCATTTCCATATTATTTTTTCGGAGTCACCTAGTGCAG”, for which the binding signal is 13900 fluorescence intensity (a.u.). For the sequence “ATTTCCTACAAGTTCATGCGCATTCATACAATGAACCCCACGGAGTCACCTAGTGCAG”, the binding signal is 9310 fluorescence intensity (a.u.). For “ACACTTATTTTGGGACGGATGTGGTATTAAGTCACACTCACGGAGTCACCTAGTGCAG” the value was 9020 fluorescence intensity (a.u.). With “AGTTTTGCACTATTCATCTCCAATGTTTGACCGTTCGTTTCGGAGTCACCTAGTGCAG” the figure was 10300 fluorescence intensity (a.u.); with “CCCCACGACGCCACGTACTCTCGGTCTCTCGCCCCGCGCCCGGAGTCACCTAGTGCAG”, 11000 fluorescence intensity (a.u.). With “GTTATTATTCCCATTCTATTTTTTTTCTTCTAGGTCGCTCCGGAGTCACCTAGTGCAG” the figure was 10600 fluorescence intensity (a.u.). On to “TAAACCTCTCCCTCTATTCCCAAACCCCAACATCTCCACTCGGAGTCACCTAGTGCAG”, for which the binding signal is 8280 fluorescence intensity (a.u.). With “AGACTAGAAACTTTCGGCCCGTCATTCTCATATTTTCGAACGGAGTCACCTAGTGCAG” the figure was 8660 fluorescence intensity (a.u.); with “GCTAGCCTCACTCCATGCTCACCACTTTCTCGGCTTTCTCCGGAGTCACCTAGTGCAG”, 14100 fluorescence intensity (a.u.).
